Results are given in words; binding and its absence hold for the method and conditions named. Some results given as binding are weak or reduced against the parent protein; the word gives no strength.
Target: TNF R1 (UniProt P19438)
Experiment: complex found in TNF-stimulated cells; method not described

Amino acid sequences for entries named in this document (tags omitted). Residues count along the entry.
UniProt P19438, residues 30-455: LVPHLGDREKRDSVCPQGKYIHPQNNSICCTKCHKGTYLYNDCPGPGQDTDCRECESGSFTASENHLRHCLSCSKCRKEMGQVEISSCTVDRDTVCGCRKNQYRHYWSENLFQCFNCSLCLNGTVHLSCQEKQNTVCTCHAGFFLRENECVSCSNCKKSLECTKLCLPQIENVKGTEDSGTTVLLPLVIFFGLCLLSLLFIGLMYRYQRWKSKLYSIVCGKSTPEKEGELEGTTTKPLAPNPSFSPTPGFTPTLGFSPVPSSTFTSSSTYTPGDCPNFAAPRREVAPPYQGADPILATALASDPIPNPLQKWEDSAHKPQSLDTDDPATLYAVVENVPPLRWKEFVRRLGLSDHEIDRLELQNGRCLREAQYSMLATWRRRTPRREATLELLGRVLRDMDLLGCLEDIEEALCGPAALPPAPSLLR

B1: TNF-R associated death domain protein (TRADD) (protein, UniProt Q15628 1-312, looked up)
chain: MAAGQNGHEEWVGSAYLFVESSLDKVVLSDAYAHPQQKVAVYRALQAALAESGGSPDVLQMLKIHRSDPQLIVQLRFCGRQPCGRFLRAYREGALRAALQRSLAAALAQHSVPLQLELRAGAERLDALLADEERCLSCILAQQPDRLRDEELAELEDALRNLKCGSGARGGDGEVASAPLQPPVPSLSEVKPPPPPPPAQTFLFQGQPVVNRPLSLKDQQTFARSVGLKWRKVGRSLQRGCRALRDPALDSLAYEYEREGLYEQAFQLLRRFVQAEGRRATLQRLVEALEENELTSLAEDLLGLTDPNGGLA
binding: binds
